Measured values reported in publication PMC6237804.

Chains of the proteins cited; added tags and fusions are not shown. Residues count along the entry.
UniProt P0A7G6, 2-337, stated change not applied: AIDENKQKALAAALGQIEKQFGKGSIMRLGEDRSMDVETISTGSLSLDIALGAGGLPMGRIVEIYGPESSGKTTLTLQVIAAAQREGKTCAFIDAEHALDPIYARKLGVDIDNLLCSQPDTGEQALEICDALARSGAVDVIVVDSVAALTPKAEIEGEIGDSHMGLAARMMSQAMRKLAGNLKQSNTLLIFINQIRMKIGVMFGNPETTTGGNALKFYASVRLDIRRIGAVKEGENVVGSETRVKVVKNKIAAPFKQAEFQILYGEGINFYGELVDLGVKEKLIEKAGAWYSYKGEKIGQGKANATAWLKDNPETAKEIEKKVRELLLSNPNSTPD

Target: RecA-wtΔC (UniProt P0A7G6)
Test: EMSA
Settings: 4.5 uM (nt) ssDNA or 9.0 uM dsDNA, agarose gel, no fixation, 6-MI: 25 mM Tris-HCl pH 7.5, 10 mM MgCl2, recombinant protein, label: FAM, single-stranded DNA

Measured: binding result

AAATCAATCTAAAGTATATATGAGTAAACTTGGTCTGACAGTTACCAATGCTTAATCAGTGAGGCACCTATCTCAGCGATCTGTCTATTT [OL2 90-mer ssDNA]
binds: 1.3 mM ATP | 1.3 mM ATPgS | no nucleotide cofactor

The exact form of at least one protein or probe is not confirmed. At least one verdict was read from the data and is not stated in words by the source.
